Assay results from the supplement of paper PMC5949888.
Most values lie at the floor of the assay. Slopes are relative: functional sequences can read slightly below zero.

system: Saccharomyces cerevisiae PS128 hsf1 delta, HSF1(1-493) fusion; assay: growth estimate (transactivation domain function in HSF1 fusion, heat-shock survival) (a.u. (slope of normalised read count over time)); higher = stronger growth at 37°C, i.e. more transactivation activity; details: library: random library

Row | Substance | growth estimate
1 | SQRRSEMPSTRIVSVVTVRR | < -0.25
2 | LALIRRSITA | < -0.25
3 | FAYGLRGRVRGVACKSHATN | < -0.25
4 | CVEHSYPVKQFHQLGICFGT | < -0.25
5 | GVMYSGVV | < -0.25
6 | GIFHHRALGFLGTTNLEGES | < -0.25
7 | NRFGSRSRWGEVRRDYSLSH | < -0.25
8 | RPGASQCPTLPHAVRRYVPS | < -0.25
9 | VGPYFLRPVLTGSSVCMECG | < -0.25
10 | GRVRRSWCSCVRRRVEPSRV | < -0.25
11 | MCQYSSMKLGHNGLRN | < -0.25
12 | CFRVDFTVG | -0.228
13 | NEGRYRTRRHAP | < -0.25
14 | LQQNVR | < -0.25
15 | LCLVGHLEAGT | < -0.25
16 | GCC | < -0.25
17 | LVAAIGL | < -0.25
18 | LQVVRHCGVGKVLTTIRGGA | < -0.25
19 | DIVSPIEEANYLLDFGNLNV | < -0.25
20 | SNATASNRYALVQYMVSFST | < -0.25
21 | RRSPGLVSRIGNATSGVVQR | < -0.25
22 | HVLELTSYEELLQRTLCMCT | < -0.25
23 | YFTIRQSRRTRSWKERLTIH | < -0.25

Row | Substance | growth estimate
24 | AQVTC | < -0.25
25 | FSDETPNMYLSHGWIYTARL | < -0.25
26 | QRHGECADGTN | < -0.25
27 | RFDWP | -0.245
28 | RALSYYHSYALRTTNDTSKR | < -0.25
29 | DLNYLMTYRLERRSPALLRA | -0.25
30 | RPTEGRHRGSARFGELLLDS | < -0.25
31 | KCLYCPLVSQQIPVLARRQT | < -0.25
32 | LKF | < -0.25
33 | VTTAKKLLAKEVV | < -0.25
34 | DCTEKPQTVRGHHMYSSTLV | < -0.25
35 | GAHRSEFSHTGRTRE | < -0.25
36 | LKIRR | < -0.25
37 | GLILWIRVLLRDPLCVRSRG | -0.229
38 | RSLII | < -0.25
39 | STARLADRVGLSERRALCIM | < -0.25
40 | VSRA | < -0.25
41 | TWQDESNDPYYRSLARLIYC | < -0.25
42 | STTPRASVGPVIRYIGHPAK | < -0.25
43 | SSDCDVVT | < -0.25
44 | SSRRARLSHRPSPYRRRAAS | < -0.25
45 | VSTRALSTLIALTSYPHEWI | < -0.25
46 | RSIMGCNIRPNSY | < -0.25

A portion from further up:
Row | Substance | growth estimate
40 | VSRA | < -0.25
41 | TWQDESNDPYYRSLARLIYC | < -0.25
42 | STTPRASVGPVIRYIGHPAK | < -0.25

Going on with the list:

Row | Substance | growth estimate
47 | LASGSPAMLRSVYTLHSFES | -0.235
48 | ILFRFSAHYIALVPGVVRAL | < -0.25
49 | LVRISRHGNEIRNHVALGSW | < -0.25
50 | LVGAPIPSNCPRTIKASTCA | < -0.25
51 | PSFYL | < -0.25
52 | LPMRSLSGSPFSGWSALQEE | < -0.25
53 | VQSK | < -0.25
54 | LSADRDMKRGVNCSNEIIGG | < -0.25
55 | KGKERSNHCGQAKKGLEALR | < -0.25
56 | SLRPQVLQGTVCRVGV | < -0.25
57 | LLSDSVFIAAYAWSTRLSGP | < -0.25
58 | FVD | < -0.25
59 | RCVR | < -0.25
60 | WEGGWYERWGT | < -0.25
61 | GGLNRSEHPGQTIWLRNLEV | -0.245
62 | RKGED | < -0.25
63 | LRGILNRVGICFLYR | < -0.25
64 | PTARVVRAGT | < -0.25
65 | LNV | < -0.25
66 | TVNSPMVCSPETISIN | < -0.25
67 | QGTERVQKRFMR | < -0.25
68 | SSHQVSITGPRRFRKRQGRP | < -0.25
69 | EVIWAQPRITDASFYA | < -0.25

Row | Substance | growth estimate
70 | PVQGVCLLAPLNEPDCRKCM | < -0.25
71 | SSMCPELIGPTLGSRQSSQD | < -0.25
72 | VVYRRTRK | < -0.25
73 | EVGVAAQPSIFGKKHMCSDR | < -0.25
74 | ADSTCALLRALVVWRHERMY | < -0.25
75 | CGLGGDGSTDVIPRHDR | < -0.25
76 | TVYLGNETSPLECCKLVPEC | < -0.25
77 | WSVPMTSIQTR | < -0.25
78 | WLFFGD | 0.108
79 | TGMHTSRTIRHGSVAQWTLG | < -0.25
80 | VLRFRFTLEA | < -0.25
81 | TVDKCDAILASLSGLADTSR | < -0.25
82 | LRFRIRVTHG | < -0.25
83 | AWRATTTVRSR | < -0.25
84 | RILVRRLGDCMARCHQGKGL | < -0.25
85 | LWVHGTYCTALRLWAQPSCG | < -0.25
86 | IGSYGGVLPTVPSVADGRLA | < -0.25
87 | IQGEFLVGAKDGLSVERKTS | < -0.25
88 | VRVHKTGQW | < -0.25
89 | GRLALLLLVDMTGPDCTVPP | < -0.25
90 | VSHLSSRASRIMNAGAWAKR | < -0.25
91 | APIFDYSGRFQCAICTQQCE | < -0.25
92 | LKAKDLSICGCTSPRMSVGS | < -0.25

Row | Substance | growth estimate
93 | GSTRNWSFQSPGPRHDRRYG | < -0.25
94 | SKGNSGTLDPGFMSKSALGR | < -0.25
95 | GTGYTLRLDQRGTVKEDRPR | < -0.25
96 | SSN | < -0.25
97 | WLEMTGDPAWAALRQSTVIG | < -0.25
98 | RVFKGYGLT | < -0.25
99 | GQS | < -0.25
100 | LDCTVARGRDRPVS | < -0.25
101 | SCR | < -0.25
102 | VENIVQLTARPIPFLKDTRA | < -0.25
103 | PSVPEGFSVASAGGV | < -0.25
104 | PIGV | < -0.25
105 | PGWTGTRGWRVS | < -0.25
106 | GGRYGEHLGA | < -0.25
107 | SHISSKTRRASWADET | < -0.25
108 | RCWE | < -0.25
109 | NTGA | < -0.25
110 | LCSG | < -0.25
111 | DELARRLCTCLPGNSHPSSA | < -0.25
112 | ISRGSICASVWDTTFRPSVI | < -0.25
113 | HYVWPGTLH | < -0.25
114 | GRPAT | < -0.25
115 | PGLSMTDAF | < -0.25

Row | Substance | growth estimate
116 | DTFSVSHAGELWSIEIPIRC | < -0.25
117 | SVG | < -0.25
118 | CRGYIYPGDIGLAMSIGAAN | < -0.25
119 | GTPSCVFVTNLLSKCRQDLP | < -0.25
120 | FSAGK | < -0.25
121 | NIK | < -0.25
122 | LMGPTEVLLETRIVH | -0.246
123 | GSKRYVLPAGFEGYEGQVVH | < -0.25
124 | SEGPRRNLEIQMSSQAR | < -0.25
125 | ILKLVRASQSPASAAHGFRV | < -0.25
126 | AQIEEIVEMARG | < -0.25
127 | TLECGA | < -0.25
128 | PAEVPDRIASFVAARPGPWA | < -0.25
129 | WWPLHECP | < -0.25
130 | WATRQVGRTHETGNSGLVNH | < -0.25
131 | HGQLR | < -0.25
132 | FSALVRSYGPYGWSTATHAP | < -0.25
133 | RLGFRAPLR | < -0.25
134 | WNSV | < -0.25
135 | FGREYVGSVICIISRQRVLK | < -0.25
136 | LRSTL | < -0.25
137 | RGANIHH | < -0.25
138 | DIE | < -0.25

In a second layout: results already given
FGREYVGSVICIISRQRVLK
  growth estimate = < -0.25
LRSTL
  growth estimate = < -0.25
RGANIHH
  growth estimate = < -0.25

(cont.)

Row | Substance | growth estimate
139 | CGPIIGEAYWMKRGETSWTQ | -0.245
140 | GIEATIHRP | < -0.25
141 | GHQASYGLMTGAGIARETHL | -0.247
142 | CSGCGLIEWRGN | < -0.25
143 | GKIVQVSSRSSEHQ | < -0.25
144 | TWGGSEPPASPPMSTFKPWR | < -0.25
145 | LGSSNIR | < -0.25
146 | PRNAGKADCPPV | < -0.25
147 | RFR | < -0.25
148 | LQRECHVSVTHLPNIFGLRS | < -0.25
149 | AKAGVAIGRCRC | < -0.25
150 | TRYVPKSVN | < -0.25
151 | IKRAEALVLAALTRWTLVWR | < -0.25
152 | RVAITSPKC | < -0.25
153 | RTGDILIDSVPRTNLILTSG | < -0.25
154 | TIYNHGGTH | < -0.25
155 | FQSRGCGVRALQPVCGLIGG | < -0.25
156 | PDIQAGAYPM | 0.114
157 | DRREQ | < -0.25
158 | LWAHSIMVRRVRLKLSTLSA | < -0.25
159 | CSSEVSEINVEYFSRLD | 0.0485
160 | CREQVYSYDGVNFRGAWI | -0.212
